Laboratory results reported in paper PMC4705995, “The Protein Interaction of RNA Helicase B (RhlB) and Polynucleotide Phosphorylase (PNPase) Contributes to the Homeostatic Control of Cysteine in Escherichia coli*” (The Journal of Biological Chemistry, 2015).
These are yes or no findings as the source states them, for the method shown. Some binding calls cover weakened binding; strength is not graded here. Tags and fused reporters may be left off the sequences shown.

T1: PNPT18 (PNPase tagged with T18) (Escherichia coli) (UniProt P05055)
T1 sequence: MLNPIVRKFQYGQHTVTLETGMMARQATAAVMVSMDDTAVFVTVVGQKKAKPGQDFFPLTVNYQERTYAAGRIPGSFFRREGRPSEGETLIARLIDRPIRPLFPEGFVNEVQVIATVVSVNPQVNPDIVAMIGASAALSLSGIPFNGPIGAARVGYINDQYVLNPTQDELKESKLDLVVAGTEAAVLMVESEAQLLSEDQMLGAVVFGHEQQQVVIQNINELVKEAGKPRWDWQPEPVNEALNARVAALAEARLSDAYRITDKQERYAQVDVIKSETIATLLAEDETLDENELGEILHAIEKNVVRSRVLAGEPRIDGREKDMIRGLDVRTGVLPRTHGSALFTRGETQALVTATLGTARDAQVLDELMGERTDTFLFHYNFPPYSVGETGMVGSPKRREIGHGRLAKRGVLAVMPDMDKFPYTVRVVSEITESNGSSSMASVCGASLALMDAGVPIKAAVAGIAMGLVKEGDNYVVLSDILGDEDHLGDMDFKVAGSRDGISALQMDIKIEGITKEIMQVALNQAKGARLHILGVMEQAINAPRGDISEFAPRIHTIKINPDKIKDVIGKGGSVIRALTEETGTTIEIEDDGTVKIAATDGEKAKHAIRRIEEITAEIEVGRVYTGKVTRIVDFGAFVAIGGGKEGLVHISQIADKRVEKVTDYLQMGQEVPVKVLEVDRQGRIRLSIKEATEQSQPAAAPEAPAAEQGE


How the values were obtained:
[1] = molecular target: T1, PNPT18 (PNPase tagged with T18) (Escherichia coli); assay: two-hybrid; bacterial two-hybrid (CyaA T25/T18) in E. coli DHP1; colony colour on a MacConkey/maltose plate
[2] = molecular target: T1, PNPT18 (PNPase tagged with T18) (Escherichia coli); assay: two-hybrid; bacterial two-hybrid (CyaA T25/T18) in E. coli DHP1; beta-galactosidase activity, relative to T25RhlB^wt set as 100%

| Binder | binding [1] | binding [2] |
| --- | --- | --- |
| FlagRhlB^wt (Flag-tagged wild-type RhlB) (enzyme, Escherichia coli, UniProt P0A8J8 1-421, looked up, RNA helicase B (RhlB) of Escherichia coli; also called pFlagRhlB^wt) MSKTHLTEQKFSDFALHPKVVEALEKKGFHNCTPIQALALPLTLAGRDVAGQAQTGTGKTMAFLTSTFHYLLSHPAIADRKVNQPRALIMAPTRELAVQIHADAEPLAEATGLKLGLAYGGDGYDKQLKVLESGVDILIGTTGRLIDYAKQNHINLGAIQVVVLDEADRMYDLGFIKDIRWLFRRMPPANQRLNMLFSATLSYRVRELAFEQMNNAEYIEVEPEQKTGHRIKEELFYPSNEEKMRLLQTLIEEEWPDRAIIFANTKHRCEEIWGHLAADGHRVGLLTGDVAQKKRLRILDEFTRGDLDILVATDVAARGLHIPAVTHVFNYDLPDDCEDYVHRIGRTGRAGASGHSISLACEEYALNLPAIETYIGHSIPVSKYNPDALMTDLPKPLRLTRPRTGNGPRRTGAPRNRRRSG | binds | binds |
| FlagRhlB^P238L (Flag-tagged RhlB^P238L) (enzyme, Escherichia coli, UniProt P0A8J8 1-421, looked up, RNA helicase B (RhlB) of Escherichia coli with P238L, introduced into pFlagRhlB by site-directed mutagenesis; also called pFlagRhlB^P238L) MSKTHLTEQKFSDFALHPKVVEALEKKGFHNCTPIQALALPLTLAGRDVAGQAQTGTGKTMAFLTSTFHYLLSHPAIADRKVNQPRALIMAPTRELAVQIHADAEPLAEATGLKLGLAYGGDGYDKQLKVLESGVDILIGTTGRLIDYAKQNHINLGAIQVVVLDEADRMYDLGFIKDIRWLFRRMPPANQRLNMLFSATLSYRVRELAFEQMNNAEYIEVEPEQKTGHRIKEELFYLSNEEKMRLLQTLIEEEWPDRAIIFANTKHRCEEIWGHLAADGHRVGLLTGDVAQKKRLRILDEFTRGDLDILVATDVAARGLHIPAVTHVFNYDLPDDCEDYVHRIGRTGRAGASGHSISLACEEYALNLPAIETYIGHSIPVSKYNPDALMTDLPKPLRLTRPRTGNGPRRTGAPRNRRRSG | binds | binds |
